Results as given in patent US20260049115A1.

Assays:
collagen type I [1] = test: ELISA on plates coated with collagen I
collagen type I [2] = test: ELISA on plates coated with collagen I [panel C]
collagen type III [3] = test: ELISA on plates coated with collagen III
collagen type III [4] = test: ELISA on plates coated with collagen III [panel C]
collagen type I [5] = test: ELISA, collagen I coated
collagen type I [6] = test: ELISA on plates coated with collagen I (n=4) [panel D]
collagen type I [7] = test: SPR, collagen I on chip

binding (collagen type I [1]): no binding
binding (collagen type I [2]): no binding
binding (collagen type III [3]): no binding
binding (collagen type III [4]): no binding
B1: wild-type mouse IL-2 (His-tagged) (ligand)
chain: PTSSSTSSSTAEAQQQQQQQQQQQQHLEQLLMDLQELLSRMENYRNLKLPRMLTFKFYLPKQATELKDLQCLEDELGPLRHVLDLTQSKSFQLEDAENFISNIRVTVVKLKGSDNTFECQFDDESATVVDFLRRWIAFCQSIISTSPQ

binding (collagen type I [5]): binds
binding (collagen type I [6]): binds
B2: CBD-fused IL-2 recombinant protein (the vWF A3 domain and mouse IL-2 fusion protein) (protein)
chain: CSQPLDVILLLDGSSSFPASYFDEMKSFAKAFISKANIGPRLTQVSVLQYGSITTIDVPWNVVPEKAHLLSLVDVMQREGGPSQIGDALGFAVRYLTSEMHGARPGASKAVVILVTDVSVDSVDAAADAARSNRVTVFPIGIGDRYDAAQLRILAGPAGDSNVVKLQRIEDLPTMVTLGNSFLHKLCSGFVRIGGGSGGGSPTSSSTSSSTAEAQQQQQQQQQQQQHLEQLLMDLQELLSRMENYRNLKLPRMLTFKFYLPKQATELKDLQCLEDELGPLRHVLDLTQSKSFQLEDAENFISNIRVTVVKLKGSDNTFECQFDDESATVVDFLRRWIAFCQSIISTSPQ

binding (collagen type I [7]): binds
B3: CBD-CCL4 (human vWF A3 domain and murine CCL4 fusion protein) (protein)
chain: CSQPLDVILLLDGSSSFPASYFDEMKSFAKAFISKANIGPRLTQVSVLQYGSITTIDVPWNVVPEKAHLLSLVDVMQREGGPSQIGDALGFAVRYLTSEMHGARPGASKAVVILVTDVSVDSVDAAADAARSNRVTVFPIGIGDRYDAAQLRILAGPAGDSNVVKLQRIEDLPTMVTLGNSFLHKLCSGFVRIGGGGSGGGGSAPMGSDPPTSCCFSYTSRQLHRSFVMDYYETSSLCSKPAVVFLTKRGRQICANPSEPWVTEYMSDLELNHHHHHH

No constants are given. Whether binding was seen depends on the method and setting. For some of these results: Binding can be weak; no strength is given. Sequences can lack the tags named with a protein. One block for each binder: values may come before it.
